The list does not hold the whole screen: it gathers tests that were run many times, whatever their T/C, doses with no T/C, and many T/C values between a quarter and a half above the control. Other doses and runs of a compound stand elsewhere. T/C is the treated group as % of the vehicle group. Some doses have a count of surviving animals in place of a T/C: the source holds a T/C of zero for them, seemingly a mark for toxic or unscored doses. Some doses without a T/C left all or most animals alive at the check, yet need not have been tolerated: the source hardly ever lists a survival T/C far under the control, and the zero likely stands for such cases as well. Survivors were counted at the toxicity check, usually on the fifth day, unless a day is given; later deaths do not show. Schedules are NCI's codes, read here as Q, the interval in days (D) or hours (H), X, the number of doses. Some entries were tested several times; their values stand side by side, smallest first. Brackets with × say how often a value occurs here. For survival time, the PubChem record calls one and a half times the control and up active, and a quarter to a half above the control has no call in these data; cut-offs in other NCI protocols can differ. Some T/C values carry the count of animals alive at the toxicity check (mostly the fifth day); where none is given, no animal had died by that day.
System: P388 leukemia ip, CD2F1 mice, survival T/C
Test: NCI In Vivo Anticancer Drug Screen. Data for tumor model P388 Leukemia (intraperitoneal) in CD2F1 (CDF1) mice
Conditions: T/C endpoint: median survival time, higher T/C = longer survival
[1] = dose: 400.0 mg/kg/injection, schedule: Q01DX009 (ip), vehicle: saline
[2] = dose: 50.0 mg/kg/injection, schedule: Q01DX005 (ip), vehicle: saline with Tween-80
[3] = dose: 100.0 mg/kg/injection, schedule: Q01DX005 (ip), vehicle: saline with Tween-80
[4] = dose: 200.0 mg/kg/injection, schedule: Q01DX005 (ip), vehicle: saline with Tween-80
[5] = dose: 100.0 mg/kg/injection, schedule: Q01DX009 (ip), vehicle: saline with Tween-80
[6] = dose: 200.0 mg/kg/injection, schedule: Q01DX009 (ip), vehicle: saline with Tween-80
[7] = dose: 50.0 mg/kg/injection, schedule: Q01DX009 (ip), vehicle: saline with Tween-80
[8] = dose: 200.0 mg/kg/injection, schedule: Q01DX009 (ip), vehicle: saline
[9] = dose: 50.0 mg/kg/injection, schedule: Q01DX009 (ip), vehicle: saline
[10] = dose: 100.0 mg/kg/injection, schedule: Q01DX009 (ip), vehicle: saline
[11] = dose: 100.0 mg/kg/injection, schedule: Q04DX003 (ip), vehicle: saline
[12] = dose: 400.0 mg/kg/injection, schedule: Q04DX003 (ip), vehicle: saline
[13] = dose: 200.0 mg/kg/injection, schedule: Q01DX005 (ip), vehicle: saline
[14] = dose: 12.5 mg/kg/injection, schedule: Q01DX009 (ip), vehicle: saline
[15] = dose: 25.0 mg/kg/injection, schedule: Q01DX009 (ip), vehicle: saline

## COc1cccc2c1NC(OC)C1CC(/C=C/C(=O)N(C)C)=CN1C2=O (stereo unspecified)
dose: 40.0 micrograms/kg/injection, schedule: Q01DX005 (ip), vehicle: saline with Tween-80
  T/C: 135 % of control
dose: 80.0 micrograms/kg/injection, schedule: Q01DX005 (ip), vehicle: saline with Tween-80
  T/C: 129 and 132 % of control
dose: 160.0 micrograms/kg/injection, schedule: Q01DX005 (ip), vehicle: saline with Tween-80
  T/C: 133 and 137 % of control
dose: 320.0 micrograms/kg/injection, schedule: Q01DX005 (ip), vehicle: saline with Tween-80
  T/C: 136 % of control
dose: 640.0 micrograms/kg/injection, schedule: Q01DX005 (ip), vehicle: saline with Tween-80
  survivor count: 2 of 6
dose: 1280.0 micrograms/kg/injection, schedule: Q01DX005 (ip), vehicle: saline with Tween-80
  survivor count: 0 of 6

## Cc1cc(O)ccc1O
[1]
  survivor count: 0 of 6
dose: 600.0 mg/kg/injection, schedule: Q01DX009 (ip), vehicle: saline
  survivor count: 0 of 6

## O=[C-]c1ccccc1[C-]=O.[I][Ni+2][I]
[2]
  survivor count: 6 of 6
[3]
  survivor count: 0 of 6
[4]
  survivor count: 0 of 6

## CCN(CC)CCNc1ccc(COC(=O)Nc2ccccc2)c2sc3ccccc3c(=O)c12
dose: 12.5 mg/kg/injection, schedule: Q01DX005 (ip), vehicle: Klucel + Tween-80
  survivor count: 1 of 6
dose: 25.0 mg/kg/injection, schedule: Q01DX005 (ip), vehicle: Klucel + Tween-80
  survivor count: 0 of 6
dose: 50.0 mg/kg/injection, schedule: Q01DX005 (ip), vehicle: Klucel + Tween-80
  survivor count: 0 of 6

## CCCCOC1OCN(C)CC1(C)C (stereo unspecified)
[5]
  T/C: 134 % of control
[6]
  T/C: 126 % of control [5 of 6 alive]

## COc1cc2c(cc1OC)-c1c(oc3c(CCC(C)C)c(O)ccc3c1=O)CO2
dose: 50.0 mg/kg/injection, schedule: Q01DX005 (ip), vehicle: Klucel (hydroxypropylcellulose) (HPC)
  survivor count: 6 of 6
dose: 200.0 mg/kg/injection, schedule: Q01DX005 (ip), vehicle: Klucel (hydroxypropylcellulose) (HPC)
  survivor count: 6 of 6

## CC(=O)c1ccc2c(=O)c(C(=O)O)c[nH]c2c1
[7]
  survivor count: 6 of 6

## FC(F)(F)C1=C(C(F)(F)F)SP(Cl)(Cl)(c2ccccc2)S1
dose: 150.0 mg/kg/injection, schedule: Q04DX003 (ip), vehicle: saline with Tween-80
  survivor count: 2 of 6
dose: 300.0 mg/kg/injection, schedule: Q04DX003 (ip), vehicle: saline with Tween-80
  survivor count: 0 of 6

## CC(C)=CCC1=CC(=O)C(CC=C(C)C)=CC1=O
[7]
  survivor count: 4 of 6
[5]
  survivor count: 1 of 6
[6]
  survivor count: 1 of 6

## O=[N+]([O-])c1ccc(Nc2ccc[n+]3c([O-])csc23)nc1
[7]
  survivor count: 6 of 6
[8]
  survivor count: 6 of 6

## [C-]#[N+]C1CCCCC1.[C-]#[N+]C1CCCCC1.[Ni].[S-]c1ccccc1.[S-]c1ccccc1
dose: 200.0 mg/kg/injection, schedule: Q04DX003 (ip), vehicle: saline with Tween-80
  survivor count: 4 of 6
dose: 400.0 mg/kg/injection, schedule: Q04DX003 (ip), vehicle: saline with Tween-80
  survivor count: 0 of 6

## CN(C)CC[CH2][Sn]([CH2]CCN(C)C)([CH2]CCN(C)C)[CH2]CCN(C)C
[6]
  survivor count: 0 of 6

## [Cl][Al]([Cl])[Cl]
[9]
  survivor count: 2 of 6
[10]
  survivor count: 5 of 6
[11]
  survivor count: 6 of 6
[8]
  survivor count: 4 of 6
[12]
  survivor count: 3 of 6

## CNC(=O)OCc1c(COC(=O)NC)c(-c2cccc(F)c2F)n2c1CCC2
dose: 3.13 mg/kg/injection, schedule: Q01DX009 (ip), vehicle: distilled water + Tween-80
  T/C: 134 % of control
dose: 6.25 mg/kg/injection, schedule: Q01DX009 (ip), vehicle: distilled water + Tween-80
  T/C: 131 % of control
dose: 12.5 mg/kg/injection, schedule: Q01DX009 (ip), vehicle: distilled water + Tween-80
  T/C: 149 % of control
dose: 50.0 mg/kg/injection, schedule: Q01DX009 (ip), vehicle: distilled water + Tween-80
  survivor count: 2 of 6 (2×)
dose: 100.0 mg/kg/injection, schedule: Q01DX009 (ip), vehicle: distilled water + Tween-80
  survivor count: 0 of 6
dose: 200.0 mg/kg/injection, schedule: Q01DX009 (ip), vehicle: distilled water + Tween-80
  survivor count: 0 of 6

## CN=C(c1ccc(NC(=O)c2ccc(C(=O)Nc3ccc(C(=NC)N4CCOCC4)cc3)c(Cl)c2)cc1)N1CCOCC1
dose: 1.56 mg/kg/injection, schedule: Q01DX005 (ip), vehicle: saline
  survivor count: 2 of 6
dose: 3.12 mg/kg/injection, schedule: Q01DX005 (ip), vehicle: saline
  survivor count: 0 of 6
dose: 6.25 mg/kg/injection, schedule: Q01DX005 (ip), vehicle: saline
  survivor count: 0 of 6
dose: 12.5 mg/kg/injection, schedule: Q01DX005 (ip), vehicle: saline
  survivor count: 0 of 6
dose: 25.0 mg/kg/injection, schedule: Q01DX005 (ip), vehicle: saline
  survivor count: 0 of 6
dose: 50.0 mg/kg/injection, schedule: Q01DX005 (ip), vehicle: saline
  survivor count: 0 of 6
dose: 100.0 mg/kg/injection, schedule: Q01DX005 (ip), vehicle: saline
  survivor count: 0 of 6
[13]
  survivor count: 0 of 6

## COc1ccc2[nH]c3c(c2c1)CNCC3
[1]
  survivor count: 1 of 6

## NCCNCC[OH2+].NCCNCC[OH2+].O=[N+]([O-])[O-].[Ni+2]
[9]
  survivor count: 6 of 6

## CSC(=S)NN=C(c1ccccc1)c1ccccc1
dose: 6.25 mg/kg/injection, schedule: Q01DX009 (ip), vehicle: saline
  survivor count: 6 of 6
[14]
  survivor count: 6 of 6
[15]
  survivor count: 6 of 6
[9]
  survivor count: 5 of 6

## C(=C\c1cc2cc(C3=NCCN3)ccc2[nH]1)/c1ccc(C2=NCCN2)cc1
dose: 25.0 mg/kg/injection, schedule: Q04DX003 (ip), vehicle: saline
  T/C: 127 and 132 % of control
[11]
  survivor count: 3 of 6
dose: 200.0 mg/kg/injection, schedule: Q04DX003 (ip), vehicle: saline
  survivor count: 0 of 6
[12]
  survivor count: 0 of 6

## CCc1nc(N)nc(N)c1-c1ccc(N2CCNCC2)c([N+](=O)[O-])c1
dose: 240.0 mg/kg/injection, schedule: Q01DX005 (ip), vehicle: saline with Tween-80
  survivor count: 0 of 6

## CC1(CO)CSC(Nc2ccc(Cl)c(Cl)c2)=N1 (stereo unspecified)
dose: 12.5 mg/kg/injection, schedule: Q01DX009 (ip), vehicle: saline with Tween-80
  survivor count: 6 of 6

## C=C1C(=O)C23C(O)CC4C(C)(C)C(OC(C)=O)C(OC(C)=O)CC4(C)C2CCC1C3O (stereo unspecified)
dose: 95.0 mg/kg/injection, schedule: Q01DX005 (ip), vehicle: Klucel (hydroxypropylcellulose) (HPC)
  survivor count: 1 of 6

## Brc1ccc(C2=NOP(c3ccccc3)(c3ccccc3)(c3ccccc3)C2)cc1
dose: 200.0 mg/kg/injection, schedule: Q01DX009 (ip), vehicle: Klucel (hydroxypropylcellulose) (HPC)
  survivor count: 6 of 6

## CC[n+]1c(-c2ccccc2)c2cc(NCCCN)ccc2c2ccc(N)cc21
[15]
  survivor count: 0 of 3
[9]
  survivor count: 0 of 3
[10]
  survivor count: 0 of 3

## C#CCOCCCC(=C)C
[14]
  T/C: 144 % of control
[15]
  T/C: 144 % of control
[9]
  survivor count: 5 of 6

## O=[N+]([O-])c1cn[n+]([O-])c2ccccc12
dose: 25.0 mg/kg/injection, schedule: Q01DX009 (ip), vehicle: saline with Tween-80
  T/C: 130 and 138 % of control
[7]
  T/C: 142 % of control
[5]
  survivor count: 1 of 6 and 4 of 6
[6]
  survivor count: 0 of 6

## O=S1(=O)CCC2=CC(C(F)(F)F)=CC(C(F)(F)F)=CN21
[2]
  survivor count: 5 of 5
[3]
  survivor count: 1 of 6
[4]
  survivor count: 0 of 6

## CCN(CC)CC(CN(CC)CC)N(CCO)CC(C)C
[13]
  survivor count: 0 of 5
